# PMC5345129
# These are yes or no findings as the source states them, for the method shown. In cells and extracts the contact can be indirect. Some results given as binding are weak or reduced against the parent protein; the word gives no strength. Sequences can lack the tags named with a protein.
# T1: GST-fusion of the 106-amino acid domain of p114RhoGEF (amino acids 686-791) (human) (UniProt Q6ZSZ5)
# T1 sequence: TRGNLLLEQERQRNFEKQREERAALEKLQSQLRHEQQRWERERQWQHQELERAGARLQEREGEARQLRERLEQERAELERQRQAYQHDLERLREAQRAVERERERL
# T2: GST-fusion of amino acids 2-252 of p115RhoGEF containing its RH domain (UniProt Q92888)
# T2 sequence: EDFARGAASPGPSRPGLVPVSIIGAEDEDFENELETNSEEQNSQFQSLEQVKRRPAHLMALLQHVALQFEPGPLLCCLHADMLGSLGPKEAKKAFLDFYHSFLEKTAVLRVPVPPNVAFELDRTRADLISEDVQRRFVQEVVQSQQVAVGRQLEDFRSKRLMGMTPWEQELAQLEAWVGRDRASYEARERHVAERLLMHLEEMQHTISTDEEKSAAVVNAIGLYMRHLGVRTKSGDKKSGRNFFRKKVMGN
# T3: GST-fusion of the 106-amino acid domain of AKAP-Lbc (amino acids 2567-2672) (human) (UniProt Q12802)
# T3 sequence: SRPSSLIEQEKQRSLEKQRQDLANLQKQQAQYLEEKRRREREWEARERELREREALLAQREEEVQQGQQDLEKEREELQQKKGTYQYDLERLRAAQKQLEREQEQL
# What was measured:
# Test in all cases: pull-down; GST fusion proteins bound to Glutathione Sepharose 4B; Gα variants from high-speed supernatants of transfected HEK293 cells, detergent diluted to 0.05% polyoxyethylene-10-lauryl ether; 50 mM HEPES pH 7.5, 1 mM EDTA, 3 mM dithiothreitol, 10 mM MgSO4; 2 h at 4°C; three washes; immunoblot (anti-Gα12, anti-myc or anti-EGFP); 5% of the extract kept as load; only the target purified
# [1] = target: T1, GST-fusion of the 106-amino acid domain of p114RhoGEF (amino acids 686-791) (human)
# [2] = target: T2, GST-fusion of amino acids 2-252 of p115RhoGEF containing its RH domain
# [3] = target: T3, GST-fusion of the 106-amino acid domain of AKAP-Lbc (amino acids 2567-2672) (human)
binder,measurement,setting,value
"myc-tagged, constitutively active Gα12 (GTPase-deficient Q229L mutant) (protein, UniProt P27600 1-379) MSGVVRTLSRCLLPAEAGARERRAGAARDAEREARRRSRDIDALLARERRAVRRLVKILLLGAGESGKSTFLKQMRIIHGREFDQKALLEFRDTIFDNILKGSRVLVDARDKLGIPWQHSENEKHGMFLMAFENKAGLPVEPATFQLYVPALSALWRDSGIREAFSRRSEFQLGESVKYFLDNLDRIGQLNYFPSKQDILLARKATKGIVEHDFVIKKIPFKMVDVGGLRSQRQKWFQCFDGITSILFMVSSSEYDQVLMEDRRTNRLVESMNIFETIVNNKLFFNVSIILFLNKMDLLVEKVKSVSIKKHFPDFKGDPHRLEDVQRYLVQCFDRKRRNRSKPLFHHFTTAIDTENIRFVFHAVKDTILQENLKDIMLQ",binding,[1],no binding
same,binding,[2],binds
same,binding,[3],no binding
